From PubChem BioAssay AID493014 (National Center for Advancing Translational Sciences (NCATS), 2011)
The campaign covered roughly 340,000 compounds. About 170 (0.05%) were called active. The shares of active, inactive and inconclusive entries below differ from those in the screen. Calls follow the shape of the dose curve; as a rule, active = well fitted inhibition curve with a large enough effect in the signal ratio, with a control signal flat (not every such curve was filed as active); inconclusive = small, poorly fitted or top-dose-only effect, or effect the other way, or a change in a side signal; inactive = flat fitted curve, though single readings scatter; the % refers to the signal ratio. Potencies beside an inconclusive call are fits to weak or partial responses and may not hold up.

Test: qHTS Assay to Find Inhibitors of Chronic Active B-Cell Receptor Signaling;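 as to activity change, negative = inhibition: plate controls were basal doxycycline-induced cells for no effect and cells given 10 µM MG132 for full effect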
Details: ABC-DLBCL IkBa-CBG/CBR reporter, luminescence ratio (green luciferase fused to IkBa over red control in TMD8 lymphoma cells), 4 h; activity change, negative = inhibition: at 46.1 µM (top of the series)
Outline: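 Compounds up to 46 uM were incubated four hours with TMD8 cells whose green CBG68 luciferase is fused to IkappaBalpha; red CBR luminescence normalised the signal, and concentration-effect curves were fitted to fusion, red and ratio data.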
Potency is read from the fitted curve at half-maximal effect.

**Q.** For COc1cc(NC(=O)C2=CC(c3ccc(C)cc3)=NS(=O)(=O)N2C)cc(OC)c1OC, which activity change, negative = inhibition is on record?
**A.** inconclusive: 19.3%

**Q.** With O=C(O)C1Sc2[nH]c(=O)sc2C2c3cc(Br)ccc3OC(=O)C12 (configuration not stated) as the compound, how does the activity change, negative = inhibition read?
**A.** inconclusive: 11%

**Q.** For COCCN(Cc1ccccc1)C(=O)C1CCN(C(=O)Nc2ccccc2)CC1, which “activity change, negative = inhibition” value is on record?
**A.** inactive: 5.69%

**Q.** Which activity change, negative = inhibition does the source give for CCOC(=O)c1ccc(NC(=O)c2ccc(OC(C)C)c(OC)c2)cc1 here?
**A.** inconclusive: 0.583%

**Q.** For CC(=O)NC(Cc1c[nH]c2ccccc12)C(=O)N/N=C/c1ccccc1 (configuration not stated), which activity change, negative = inhibition is on record?
**A.** inconclusive: -14.6%

**Q.** Which “activity change, negative = inhibition” value does the source give for Cn1cnc(S(=O)(=O)Nc2cc(-c3ccc(Cl)cc3)nn2C)c1 here?
**A.** inactive: -17.4%

**Q.** Which activity change, negative = inhibition does the source give for COCCNC(=S)N(CCc1c(C)[nH]c2ccc(F)cc12)Cc1ccco1 here?
**A.** inconclusive: -9.8%

**Q.** Which activity change, negative = inhibition does the source give for COc1ccc(CN2CCN(c3ncccn3)CC2)c(OC)c1 here?
**A.** inconclusive: 4.06%

**Q.** With CCOc1ccc(N(CC(=O)NCc2ccc3c(c2)OCO3)C(=O)c2csnn2)cc1 as the compound, how does the activity change, negative = inhibition read?
**A.** inconclusive: -2.32%

**Q.** With CCCCCOC(=O)C1=C(C)Nc2ncnn2C1c1cccs1 (configuration not stated) as the compound, how does the activity change, negative = inhibition read?
**A.** inconclusive: 4.86%

**Q.** With CCOc1ccccc1NC(=O)C1CCC(CNc2c(N3CCCCC3)c(=O)c2=O)CC1 (configuration not stated) as the compound, how does the activity change, negative = inhibition read?
**A.** inconclusive: 14.5%

**Q.** For O=C(NC(=S)Nc1cccc(Cl)c1N1CCCCC1)c1ccc2c(c1)OCCO2, which “activity change, negative = inhibition” value is on record?
**A.** inactive: -2.16%

**Q.** With O=S(=O)(Nc1cccnc1)c1cccs1 as the compound, how does the activity change, negative = inhibition read?
**A.** inconclusive: -11.8%

**Q.** For Cc1ccc(S(=O)(=O)c2cc3cc(Br)ccc3oc2=O)cc1, which Potency is on record?
**A.** inconclusive: 13 µM [falling, partial curve, poor fit]

**Q.** For O=C(N/N=C/c1sc(N2CCOCC2)nc1-c1ccccc1)c1ccccc1O, which Potency is on record?
**A.** inconclusive: 18.4 µM [falling, single point]

**Q.** Which Potency does the source give for O=C(Nc1nc(-c2cccs2)cs1)c1ccc(Cl)s1 here?
**A.** inconclusive: 1.3 µM [rising, full curve, poor fit]

**Q.** For COC(=O)N=Nc1c(O)[nH]c2ccc(Br)cc12, which activity change, negative = inhibition is on record?
**A.** inconclusive: -1.91%

**Q.** For O=C(O)CCC(=O)N1N=C(c2ccc(Br)cc2)CC1c1cccc(Br)c1 (configuration not stated), which activity change, negative = inhibition is on record?
**A.** inconclusive: 6.48%

**Q.** For CC(C(=O)NC1C=CS(=O)(=O)C1)N1C(=O)/C(=C/c2ccc(Cl)cc2)SC1=S (configuration not stated), which Potency is on record?
**A.** inconclusive: 22.4 µM [falling, partial curve]

**Q.** With COc1ccccc1NC(=S)N(CCc1nc2cc(C)c(C)cc2[nH]1)Cc1cccnc1 as the compound, how does the activity change, negative = inhibition read?
**A.** inconclusive: -0.548%

**Q.** With COc1cc2c(=O)n(Cc3ccccc3)c(=O)n(CC(=O)NCC3CCCO3)c2cc1OC (configuration not stated) as the compound, how does the activity change, negative = inhibition read?
**A.** inconclusive: 8.94%

**Q.** With CC(C)N(Cc1cn[nH]c1-c1ccc(-c2ccccc2)cc1)Cc1nccn1C as the compound, how does the Potency read?
**A.** inconclusive: 20 µM [falling, partial curve, poor fit]
